Measured data: PubChem BioAssay AID1224828 (NIAID, 2016)
In all, the deposit lists about 17,000 reagents; this is a part drawn at random. Of all reagents, 762 (4.5%) were called active. 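Active calls include both raised and lowered p65 entry, mostly lowered; wells with fewer than 50 cells lack a z-score.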 The raw values are shown without normalisation. Reagents against one gene are numbered here. No sequences are given here.

Aim: 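Knock-downs that increase or decrease LPS-induced p65 nuclear translocation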 (primary screen)
System: mouse RAW264.7 G9 macrophage reporter cells (GFP-p65, Tnf promoter-mCherry)
Reagents: siRNA pool against mouse genes, 100 nM
Time to read-out: 2 days siRNA transfection, then 40 min LPS before fixation
Treatment: LPS (Salmonella minnesota R595) at 10 ng/ml
Measured: 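Microscopy ratio of nuclear to perinuclear-ring GFP-p65 signal, scaled to the plate median; gene score is the average of two replicate robust z-scores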
Scale: p65 translocation robust z-score: higher = more nuclear NF-kappaB p65 after LPS than the plate median; nuclear/cytoplasmic p65 ratio: higher = more nuclear NF-kappaB p65
Hit rule: 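Active if robust z is above 3.3 (negative regulators) or below -1.56, the Tlr4 control median (positive regulators); activity score 50 or more; control wells not called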
Meaning of the calls: active = hit (p65 shift raised or lowered); inactive = no clear change

gene symbol | pool no. | p65 translocation robust z-score | nuclear/cytoplasmic p65 ratio, rep 1 | nuclear/cytoplasmic p65 ratio, rep 2 | low cell count flag | outcome
Bcl2l1 (GeneID 12048) | 1 | 0.59 | 1.68 | 1.72 | enough cells to score | inactive
Dynlrb1 (GeneID 67068) | 1 | -0.56 | 1.4 | 1.29 | enough cells to score | inactive
Eif4a1 (GeneID 13681) | 1 | – | 1.63 | 1.4 | fewer than 50 cells per well; well left out of scoring | inactive
Fem1a (GeneID 14154) | 1 | 2.33 | 1.65 | 1.79 | enough cells to score | inactive
Clcf1 (GeneID 56708) | 1 | -0.12 | 1.59 | 1.6 | enough cells to score | inactive
Or7g27 (GeneID 258249) | 1 | 0.9 | 1.46 | 1.37 | enough cells to score | inactive
Prkab2 (GeneID 108097) | 1 | 0.63 | 1.51 | 1.24 | enough cells to score | inactive
Or51m1 (GeneID 258961) | 1 | 0.14 | 1.43 | 1.31 | enough cells to score | inactive
C130070B15Rik (GeneID 320891) | 1 | 0.69 | 1.52 | 1.38 | enough cells to score | inactive
Arpp19 (GeneID 59046) | 1 | 1.36 | 1.9 | 1.75 | enough cells to score | inactive
Or4a68 (GeneID 258804) | 1 | – | 1.65 | 1.6 | fewer than 50 cells per well; well left out of scoring | inactive
Mast3 (GeneID 546071) | 1 | – | 1.39 | 1.56 | fewer than 50 cells per well; well left out of scoring | inactive
Or51ag1 (GeneID 259085) | 1 | 0.74 | 1.51 | 1.38 | enough cells to score | inactive
Nr6a1 (GeneID 14536) | 1 | -1.17 | 1.36 | 1.2 | enough cells to score | inactive
Cd1d2 (GeneID 12480) | 1 | 0.47 | 1.52 | 1.45 | enough cells to score | inactive
Fbxw21 (GeneID 320082) | 1 | 1.65 | 1.6 | 1.57 | enough cells to score | inactive
Orc4 (GeneID 26428) | 1 | 0.09 | 1.44 | 1.27 | enough cells to score | inactive
Scand1 (GeneID 19018) | 1 | -0.35 | 1.46 | 1.22 | enough cells to score | inactive
Pcdh20 (GeneID 219257) | 1 | 0.15 | 1.4 | 1.31 | enough cells to score | inactive
Tspyl3 (GeneID 241732) | 1 | 0.1 | 1.57 | 1.57 | enough cells to score | inactive
Kif20a (GeneID 19348) | 1 | -1.23 | 1.3 | 1.23 | enough cells to score | inactive
Rgs18 (GeneID 64214) | 1 | 0.19 | 1.39 | 1.29 | enough cells to score | inactive
Stk4 (GeneID 58231) | 1 | – | 1.17 | 1.26 | fewer than 50 cells per well; well left out of scoring | inactive
Mff (GeneID 75734) | 1 | – | 1.24 | 1.26 | fewer than 50 cells per well; well left out of scoring | inactive
Arpc5l (GeneID 74192) | 1 | -0.41 | 1.6 | 1.39 | enough cells to score | inactive
Pln (GeneID 18821) | 1 | -0.11 | 1.34 | 1.23 | enough cells to score | inactive

No new results follow: an excerpt of the list.
gene symbol | pool no. | p65 translocation robust z-score | nuclear/cytoplasmic p65 ratio, rep 1 | nuclear/cytoplasmic p65 ratio, rep 2 | low cell count flag | outcome
Clcf1 (GeneID 56708) | 1 | -0.12 | 1.59 | 1.6 | enough cells to score | inactive
Or7g27 (GeneID 258249) | 1 | 0.9 | 1.46 | 1.37 | enough cells to score | inactive
Prkab2 (GeneID 108097) | 1 | 0.63 | 1.51 | 1.24 | enough cells to score | inactive
Or51m1 (GeneID 258961) | 1 | 0.14 | 1.43 | 1.31 | enough cells to score | inactive
C130070B15Rik (GeneID 320891) | 1 | 0.69 | 1.52 | 1.38 | enough cells to score | inactive
Arpp19 (GeneID 59046) | 1 | 1.36 | 1.9 | 1.75 | enough cells to score | inactive
Or4a68 (GeneID 258804) | 1 | – | 1.65 | 1.6 | fewer than 50 cells per well; well left out of scoring | inactive
Mast3 (GeneID 546071) | 1 | – | 1.39 | 1.56 | fewer than 50 cells per well; well left out of scoring | inactive

The listing continues:
gene symbol | pool no. | p65 translocation robust z-score | nuclear/cytoplasmic p65 ratio, rep 1 | nuclear/cytoplasmic p65 ratio, rep 2 | low cell count flag | outcome
Rps11 (GeneID 27207) | 1 | – | 1.12 | 1.06 | fewer than 50 cells per well; well left out of scoring | inactive
Gtf2f2 (GeneID 68705) | 1 | 0.04 | 1.42 | 1.39 | enough cells to score | inactive
Or8w1 (GeneID 258833) | 1 | 0.25 | 1.71 | 1.6 | enough cells to score | inactive
Sms (GeneID 20603) | 1 | 0.53 | 1.63 | 1.62 | enough cells to score | inactive
Brpf1 (GeneID 78783) | 1 | -0.65 | 1.54 | 1.5 | enough cells to score | inactive
Mro (GeneID 71263) | 1 | 0.53 | 2 | 1.56 | enough cells to score | inactive
P4ha3 (GeneID 320452) | 1 | – | 1.44 | 1.18 | fewer than 50 cells per well; well left out of scoring | inactive
Lrrc61 (GeneID 243371) | 1 | -0.54 | 1.5 | 1.75 | enough cells to score | inactive
Prkca (GeneID 18750) | 1 | – | 1.89 | 1.25 | fewer than 50 cells per well; well left out of scoring | inactive
Emilin3 (GeneID 280635) | 1 | – | 1.46 | 1.31 | fewer than 50 cells per well; well left out of scoring | inactive
Entr1 (GeneID 68112) | 1 | -0.5 | 1.29 | 1.53 | enough cells to score | inactive
Ube2k (GeneID 53323) | 1 | 1.21 | 1.41 | 1.54 | enough cells to score | inactive
Atp6ap1 (GeneID 54411) | 1 | -1.35 | 1.37 | 1.36 | enough cells to score | inactive
Copz1 (GeneID 56447) | 1 | – | 1.06 | 1.83 | fewer than 50 cells per well; well left out of scoring | inactive
Gtpbp4 (GeneID 69237) | 1 | -0.63 | 1.64 | 1.36 | enough cells to score | inactive
Rad23a (GeneID 19358) | 1 | -0.05 | 1.5 | 1.52 | enough cells to score | inactive
Gpatch4 (GeneID 66614) | 1 | 1.64 | 1.61 | 1.68 | enough cells to score | inactive
Tmt1a (GeneID 70152) | 1 | – | 1.14 | 1.11 | fewer than 50 cells per well; well left out of scoring | inactive
Med7 (GeneID 66213) | 1 | 0.21 | 1.64 | 1.29 | enough cells to score | inactive
2010013B10RIK | 1 | – | 1.5 | 1.36 | fewer than 50 cells per well; well left out of scoring | inactive
Abcc12 (GeneID 244562) | 1 | 0.44 | 1.81 | 1.6 | enough cells to score | inactive
Prl2a1 (GeneID 56635) | 1 | -0.03 | 1.37 | 1.22 | enough cells to score | inactive
Cela1 (GeneID 109901) | 1 | – | 1.31 | 1.17 | fewer than 50 cells per well; well left out of scoring | inactive
Dbt (GeneID 13171) | 1 | -0.72 | 1.47 | 1.27 | enough cells to score | inactive
Ak5 (GeneID 229949) | 1 | -1.73 | 1.25 | 1.44 | enough cells to score | active
Ache (GeneID 11423) | 1 | 1.01 | 1.68 | 1.86 | enough cells to score | inactive
Sowahb (GeneID 78088) | 1 | – | 1.19 | 1.25 | fewer than 50 cells per well; well left out of scoring | inactive
Fbxo4 (GeneID 106052) | 1 | – | 1.27 | 1.09 | fewer than 50 cells per well; well left out of scoring | inactive
Fbxo4 (GeneID 106052) | 2 | -0.04 | 1.44 | 1.38 | enough cells to score | inactive
Or10a4 (GeneID 18314) | 1 | 0.42 | 1.74 | 1.42 | enough cells to score | inactive
Cct3 (GeneID 12462) | 1 | 1.57 | 1.44 | 1.58 | enough cells to score | inactive
Magee1 (GeneID 107528) | 1 | -0.73 | 1.65 | 1.4 | enough cells to score | inactive
Sval2 (GeneID 84543) | 1 | 1.57 | 1.66 | 1.38 | enough cells to score | inactive
